Source: the supplement of paper PMC10338343
± gives the standard deviation. The list shows a part of the results, in another mix than the full data. The uncertainty is large for many entries. This is one part of the list.

What was measured:
[1] = system: MILI (PIWIL2) piRISC loaded with L1MC piRNA (26 nt); experiment: pre-steady-state target cleavage rate (min^-1); higher = faster piRNA-guided slicing of the target; settings: guide: L1MC piRNA 5'p-UAACUAAAUACUAUGCAAGCUGUAGG
Outline: (§1)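 With or without 500 nM GTSF1 partner protein, 1 nM active affinity-purified piRISC carrying one synthetic guide was mixed with 0.1 nM transcribed, DNA-blocked target RNA library in HEPES–potassium acetate buffer at 33 °C for 0–8 or 0–960 min. Uncleaved targets were sequenced and normalised to depth and to weakly complementary targets, three trials were pooled, and k3 was capped at 0.0001 min^-1. The pre-steady-state cleavage rate came from a burst-and-steady-state fit.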

[2] = system: EfPiwi piRISC loaded with L1MC piRNA (26 nt); experiment: pre-steady-state target cleavage rate (min^-1); guide: L1MC piRNA 5'p-UAACUAAAUACUAUGCAAGCUGUAGG; MIWI and MILI are mouse PIWI proteins and EfPiwi is from a freshwater sponge; tags in brackets are library labels; higher = faster piRNA-guided slicing of the target
Outline: as §1

[3] = auxiliary factor: none (no GTSF1)
[4] = auxiliary factor: 500 nM Ephydatia muelleri Gtsf1
[5] = auxiliary factor: none (no Gtsf1)
[6] = auxiliary factor: 500 nM mouse GTSF1

Sequence | pre-steady-state target cleavage rate [1, 3] | pre-steady-state target cleavage rate [2, 4] | pre-steady-state target cleavage rate [2, 5] | pre-steady-state target cleavage rate [1, 6]
UCCUGGAUGUCGAACGUUACUAUUUAGUUA | 0.000195 ± 0.018 | < 0.0001 |  | 
UCCUCCUAGAGCUUGCAUACUAUUUAGUUA | 0.00176 ± 0.0035 |  | 0.00193 ± 0.0049 | 
UCCUGGAUCAGCUUGCAUAGUUAAUAGUAA | 0.002 ± 0.0039 | 0.000328 ± 0.016 |  | 
UCCUGGUACAGCUUGCAUAGUUUAUAGUUA | 0.00282 ± 0.0033 | 0.00189 ± 0.0035 |  | 
UCCUGGAACAGCAUGCAUAGUAUUUAGAAA | 0.00289 ± 0.0032 | 0.00167 ± 0.0021 |  | 
UCCUGGAUGUGCUUGCUUAGUAUUUUGUUA | 0.00333 ± 0.0036 | 0.00057 ± 0.008 |  | 
UCCUGGAUGUGCUUGCAUAGUAAAUAGUUA | 0.00287 ± 0.0032 | 0.00273 ± 0.0051 |  | 
UCCUGGAUGUCGAAGCAUAGUAUUUAGCUA | 0.000447 ± 0.012 | 0.000221 ± 0.019 |  | 
UCCUGGAUGAGCUUGCAUAGUAUUUAAUUA | 0.00253 ± 0.0031 | 0.00294 ± 0.0025 |  | 
UCCUCCUACAGCUUGCAUUGUAUUAAGUUA | 0.00162 ± 0.004 | 0.00681 ± 0.0032 |  | 
UCCUGGAUGUGCUUGCAAAGUAUUUAGAUA | 0.00153 ± 0.0046 | 0.00182 ± 0.0047 |  | 
UCCUGGAUGUCGUUGCAUAGUAUUAAGUAA | 0.00163 ± 0.0044 | 0.00078 ± 0.009 |  | 
UCCUGGAUGUGCUUCCAUAGUAUAUAGUUA | 0.000401 ± 0.015 | 0.000309 ± 0.012 |  | 
UCCUCCUACAGCUGUGCAUAGUAUUUAGUUA |  | 0.0425 ± 0.015 |  | 0.321 ± 0.017
UCCUGGAUGUCGAUGCAUAGAAUUUAGUAA |  |  | < 0.0001 | 0.00051 ± 0.013
UCCUGGAUGUCGAAGCAUAGUAUUUUCUUA | 0.000553 ± 0.0097 | 0.000853 ± 0.0073 |  | 
UCCUGGAACAGCUAGCAUAGUAUUUAGAUA | 0.00217 ± 0.0034 |  | 0.00045 ± 0.016 | 
UCCUCCUACACCUUGCAUAGUAUUUAGAAA | 0.00191 ± 0.0037 | 0.00377 ± 0.0021 |  | 
UCCUCCUAGUGCUUGCAUAGUAUUUACAAA | 0.000979 ± 0.0043 | 0.00293 ± 0.0029 |  | 
UCCUGGAUGUCGAAGCACUAGUAUUUAGUUA | 0.000393 ± 0.013 |  | 0.000247 ± 0.023 | 
UCCUCCUACAGCUUGCAUAGUAUUUUGAAA | 0.00213 ± 0.0037 | 0.00602 ± 0.0032 |  | 
UCCUGGAUGUCGAAGCAUUGUAUUUAGAUA | 0.000139 ± 0.027 | 0.000823 ± 0.008 |  | 
UCCUCCUACAGCUUGCAUAGUAUUUCAGUUA |  | 0.00437 ± 0.0022 |  | 0.463 ± 0.073
UCCUGGAUGUCGAACGAUAUGUAUUUAGUUA | 0.000134 ± 0.035 | 0.000118 ± 0.019 |  | 
UCCUGCUAGUCCUUGCAUAGUAUUUAGUAA | 0.00166 ± 0.0035 | 0.00266 ± 0.0028 |  | 
UCCUGCUUGUGCUUGCAUAGUAUUUAGAAA | 0.00093 ± 0.0051 | 0.00373 ± 0.0022 |  | 
UCCUGGAUCAGCUUGCAUAGAAUAUAGUUA | 0.00211 ± 0.0035 | 0.0016 ± 0.0038 |  | 
UCCUGGAUCAGCUUGCAUAGAAUUUAGAUA | 0.000921 ± 0.0053 | 0.0036 ± 0.0019 |  | 

Four entries drawn at random from the list so far, as already listed:
Sequence | pre-steady-state target cleavage rate [1, 3] | pre-steady-state target cleavage rate [2, 4] | pre-steady-state target cleavage rate [2, 5] | pre-steady-state target cleavage rate [1, 6]
UCCUGGAUGUCGAAGCAUAGUAUUUUCUUA | 0.000553 ± 0.0097 | 0.000853 ± 0.0073 |  | 
UCCUGGAACAGCAUGCAUAGUAUUUAGAAA | 0.00289 ± 0.0032 | 0.00167 ± 0.0021 |  | 
UCCUCCUAGAGCUUGCAUACUAUUUAGUUA | 0.00176 ± 0.0035 |  | 0.00193 ± 0.0049 | 
UCCUGGAACAGCUAGCAUAGUAUUUAGAUA | 0.00217 ± 0.0034 |  | 0.00045 ± 0.016 | 

Additional entries follow:

Sequence | pre-steady-state target cleavage rate [1, 3] | pre-steady-state target cleavage rate [2, 4] | pre-steady-state target cleavage rate [2, 5] | pre-steady-state target cleavage rate [1, 6]
UCCUGGUGCAGCUUGCAUAGUAUUUAGUUA |  | 0.0864 ± 0.018 |  | 0.287 ± 0.017
UCCUGGAUGUCGAACCAAGUAUUUAGUUA |  | 0.000213 ± 0.022 |  | 0.000159 ± 0.02
UCCUGGAACAGCUUGCAUAGUAUUUACAUA | 0.00143 ± 0.0053 | 0.00316 ± 0.0025 |  | 
UCCUGGAACAGCAUGCAUAGAAUUUAGUUA | 0.00156 ± 0.004 | 0.00207 ± 0.0021 |  | 
UCCUGGAUGUCGAAGCAUAGUAUUUACGUUA | 0.00145 ± 0.0041 | 0.000284 ± 0.014 |  | 
UCCUCCUACACCUUGCAUACUAUUUAGUUA | 0.00272 ± 0.0028 |  | 0.000494 ± 0.01 | 
UCCUGGAUGUCGAACCAUUGUAUUAAGUUA | 0.000255 ± 0.015 |  | 0.000249 ± 0.026 | 
UCCUCCUACACCUUGCAUAGUAUUAAGUUA | 0.00187 ± 0.0034 | 0.00451 ± 0.0025 |  | 
UCCUGGAUGAGCUUGGAUAGUAUUAAGUUA | 0.00265 ± 0.0029 | 0.000818 ± 0.0075 |  | 
UCCUGCUACAGCUUGCAUAGUAAUUUGUUA | 0.00173 ± 0.0036 | 0.00579 ± 0.002 |  | 
UCCUGGAUCAGCAUGCAUAGAAUUUAGUUA | 0.00247 ± 0.0025 | 0.000952 ± 0.0036 |  | 
UCCUGGAUCAGCUUGCAUUGUAUUUACUUA | 0.00257 ± 0.0031 | 0.00163 ± 0.0044 |  | 
UCCUGGAUGUCGAUGCAUUGUAUUUAGUAA | 0.000491 ± 0.012 | 0.000249 ± 0.012 |  | 
UCCUCCUACAGCUAGCAUAGUAUUUAGAUA | 0.00203 ± 0.0031 | 0.00495 ± 0.0024 |  | 
UCCUGGCACAGCUUGCAUAGUAUUUAGUUA |  | 0.0252 ± 0.0092 |  | 0.289 ± 0.053
UCCUGGUACAGCUUGCAUUGUAUUAAGUUA | 0.00118 ± 0.0065 | 0.00275 ± 0.0033 |  | 
UCCUGGAUGUCGAUGCAUAGUAAAAAGUUA | 0.000708 ± 0.0084 | 0.000107 ± 0.047 |  | 
UCCUGGAUCAGCUUGCUUAGUAUUUAGAAA | 0.00295 ± 0.0031 | 0.00269 ± 0.0022 |  | 
UCCUGGAUCAGCUUGCAAAGAAUUUAGUUA | 0.00211 ± 0.0031 | 0.000593 ± 0.007 |  | 
UCCUGCUACAGGUUGCAUAGUAUUUACUUA | 0.00162 ± 0.0036 | 0.000612 ± 0.0054 |  | 
UCCUCCUACUCCUUGCAUAGUAUUUACAAA | 0.0008 ± 0.0055 | 0.0029 ± 0.0034 |  | 
UCCUGCUGCAGCUUGCAUAGUAUUUAGUUA |  | 0.0729 ± 0.016 |  | 0.331 ± 0.024
UCCUGGAUGAGCUUGCAUAGUAUUUAGCUA | 0.0005 ± 0.014 | 0.00145 ± 0.0022 |  | 
UCCUGGAUGUCGAAGCAUUGUAUUUUGUUA | 0.000395 ± 0.013 | 0.000246 ± 0.014 |  | 
UCCUGGAUGAGCUUGCAUAGUAAUUUGUUA | 0.00184 ± 0.0045 | 0.00104 ± 0.0085 |  | 
UCCUGGAUGUGCUUGCAUAGUAAAAAGAAA | 0.000665 ± 0.0091 | 0.00141 ± 0.0078 |  | 
UCCUGCUACAGCGUGCAUAGUAUUUAGUUA |  |  | 0.000759 ± 0.011 | 0.296 ± 0.02
